# Data taken from patent US20120289884A1, “Fused Ring Diarylamino Photosensitizers for Phototherapy” (Mallinckrodt LLC, priority 2011, published 2012).
# Test: ESR spectroscopy of free radical generation upon photoexcitation
SMILES,"lifetime of the radical from photolysis (t1/2) (ESR without DMPO, benzene solution) [s]",free radical generation detected by ESR (photoexcitation with UV-A and/or UV-B light)
"C1=Cc2ccccc2Nc2ccccc21 [(FX8), 5H-Dibenz[b,f]azepine]",20,
"c1ccc2c(c1)Sc1ccccc1S2 [(FX21)a, thianthrene]",,no radicals could be detected
